# Literature values as cited in patent US12185721B2, “Glycoside compound of fatty acids, composition comprising it, process for its obtention and methods to apply it on plants or fruits or both at the same time” (Consejo Nacional de Investigaciones Científicas y Técnicas …, priority 2020, dated 2025).
# At least one structure is not confirmed: it was looked up by name or label, or the drawing left a doubt.
# Experiments:
# Conditions in all cases: described values; cited from earlier work
# Pseudomona aeruginosa = tested on: Pseudomona aeruginosa
# Proteus sp. = tested on: Proteus sp.
# Citrobacter sp. = tested on: Citrobacter sp.
# Escherichia coli MC 4100 = tested on: Escherichia coli MC 4100
# Salmonella Newport = tested on: Salmonella Newport
smiles,measurement,setting,value
C[C@@H](O)[C@H]1C(=O)N2C(C(=O)O)=C(SCCN=CN)C[C@H]12 [Imipenem],CE50 (μg/ml) for commercial antimicrobial,Pseudomona aeruginosa,Imipenem 0.78 μg/ml
same,CE50 (μg/ml) for commercial antimicrobial,Proteus sp.,Imipenem 1.56 μg/ml
same,CE50 (μg/ml) for commercial antimicrobial,Citrobacter sp.,Imipenem 0.2 μg/ml
same,CE50 (μg/ml) for commercial antimicrobial,Escherichia coli MC 4100,Imipenem 0.1 μg/ml
same,CE50 (μg/ml) for commercial antimicrobial,Salmonella Newport,Imipenem 0.5 μg/ml
